Assay results: paper PMC5381120
Results are given in words; binding and its absence hold for the method and conditions named. Binding seen in cells or lysates may run through a third protein. Some results given as binding are weak or reduced against the parent protein; the word gives no strength.

Target: T1, FBXL2 (mouse (endogenous in RAW 264.7)) (UniProt Q8BH16)
T1 sequence: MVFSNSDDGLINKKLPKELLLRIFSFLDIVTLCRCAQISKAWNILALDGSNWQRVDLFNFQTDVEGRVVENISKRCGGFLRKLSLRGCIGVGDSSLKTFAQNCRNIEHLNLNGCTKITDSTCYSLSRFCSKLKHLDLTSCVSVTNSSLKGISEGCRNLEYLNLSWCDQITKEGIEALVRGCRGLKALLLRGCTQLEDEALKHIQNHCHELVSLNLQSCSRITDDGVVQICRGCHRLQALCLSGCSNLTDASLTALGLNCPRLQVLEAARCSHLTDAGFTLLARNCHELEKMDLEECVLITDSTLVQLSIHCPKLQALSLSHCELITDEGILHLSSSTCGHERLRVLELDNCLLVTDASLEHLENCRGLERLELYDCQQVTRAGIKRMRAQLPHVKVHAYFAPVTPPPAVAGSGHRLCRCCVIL
Experiment: co-IP; FBXL2 antibody and protein A/G beads added to 1 mg RAW 264.7 cell lysate, 6 h, washed 5 times, blotted with anti-FBXL2 and anti-TRAF6; cells of the control, polyethylene debris and LIPUS+debris groups

binding: binds
B1: TRAF6 (protein, UniProt P70196 1-530)
chain: MSLLNCENSCGSSQSSSDCCAAMAASCSAAVKDDSVSGSASTGNLSSSFMEEIQGYDVEFDPPLESKYECPICLMALREAVQTPCGHRFCKACIIKSIRDAGHKCPVDNEILLENQLFPDNFAKREILSLTVKCPNKGCLQKMELRHLEDHQVHCEFALVNCPQCQRPFQKCQVNTHIIEDCPRRQVSCVNCAVSMAYEEKEIHDQSCPLANIICEYCGTILIREQMPNHYDLDCPTAPIPCTFSVFGCHEKMQRNHLARHLQENTQLHMRLLAQAVHNVNLALRPCDAASPSRGCRPEDPNYEETIKQLESRLVRQDHQIRELTAKMETQSMYVGELKRTIRTLEDKVAEMEAQQCNGIYIWKIGNFGMHLKSQEEERPVVIHSPGFYTGRPGYKLCMRLHLQLPTAQRCANYISLFVHTMQGEYDSHLPWPFQGTIRLTILDQSEALIRQNHEEVMDAKPELLAFQRPTIPRNPKGFGYVTFMHLEALRQGTFIKDDTLLVRCEVSTRFDMGGLRKEGFQPRSTDAGV
